Results reported in article PMC12339706.
No constants are given. Whether binding was seen depends on the method and setting. Binding seen in cells or lysates may run through a third protein. Some entries that bind do so weakly or less than the wild type. Sequences can lack the tags named with a protein.

Target: T1, Flag-TRIM59 (UniProt Q8IWR1)
T1 sequence: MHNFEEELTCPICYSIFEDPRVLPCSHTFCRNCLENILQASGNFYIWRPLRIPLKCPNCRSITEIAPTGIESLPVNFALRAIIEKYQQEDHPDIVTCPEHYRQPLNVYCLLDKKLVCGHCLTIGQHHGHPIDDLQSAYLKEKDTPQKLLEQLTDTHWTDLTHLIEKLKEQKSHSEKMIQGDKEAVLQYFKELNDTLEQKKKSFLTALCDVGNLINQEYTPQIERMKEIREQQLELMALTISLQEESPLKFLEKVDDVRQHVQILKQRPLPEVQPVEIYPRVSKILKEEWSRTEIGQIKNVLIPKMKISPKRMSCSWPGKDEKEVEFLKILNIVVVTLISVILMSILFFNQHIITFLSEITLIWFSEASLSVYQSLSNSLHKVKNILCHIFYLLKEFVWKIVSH
Assay: co-IP; HEK-293T cells transfected with Flag-TRIM59 and Myc-ACAT1, MG132 20 uM for 6 h; anti-Flag and anti-Myc immunoprecipitation (5 mg protein, 5 ug antibody or IgG, 4 °C overnight), protein A/G magnetic beads, Western blot

binding: binds
B1: Myc-ACAT1 (enzyme, UniProt P24752 34-427)
chain: VSKPTLKEVVIVSATRTPIGSFLGSLSLLPATKLGSIAIQGAIEKAGIPKEEVKEAYMGNVLQGGEGQAPTRQAVLGAGLPISTPCTTINKVCASGMKAIMMASQSLMCGHQDVMVAGGMESMSNVPYVMNRGSTPYGGVKLEDLIVKDGLTDVYNKIHMGSCAENTAKKLNIARNEQDAYAINSYTRSKAAWEAGKFGNEVIPVTVTVKGQPDVVVKEDEEYKRVDFSKVPKLKTVFQKENGTVTAANASTLNDGAAALVLMTADAAKRLNVTPLARIVAFADAAVEPIDFPIAPVYAASMVLKDVGLKKEDIAMWEVNEAFSLVVLANIKMLEIDPQKVNINGGAVSLGHPIGMSGARIVGHLTHALKQGEYGLASICNGGGGASAMLIQKL
